Data as given in US20100291196A1, “METHOD OF TREATMENT OF AUTISM SPECTRUM DISORDER WITH LIPOSOMAL REDUCED GLUTATHIONE” (priority 2005, published 2010).
At least one structure is not confirmed: it was looked up by name or label, or the drawing left a doubt.

Columns and labels:
children with autism = conditions: 800 μg folinic acid and 1000 mg betaine twice daily, 3 months; cited from earlier work
[1] = system: methionine cycle function; conditions: Case 3, supplements taken together in the month before liposomal glutathione
Text: The elevation of histamine is also an indicator of decreased methylation function as it is inactivated by histamine-methyl transferase.
During the month prior to evaluation the MM initiated therapy with SAMe, folate, betaine (trimethyl glycine), N-acetylcysteine and B12 by injection and oral glutathione (neat, not in the form of the invention).

C[N+](C)(C)CC(=O)O [betaine, trimethyl glycine]
methionine cycle metabolites versus concentrations in controls (children with autism): effective in normalizing
total GSH (tGSH) or GSSG concentrations or tGSH:GSSG ratio (children with autism): improved but did not normalize
improvement with known intermediates and support supplements of the methionine cycle [1]: did not improve
